Source: PubChem BioAssay AID330 (DTP/NCI, 2004)
The list shows only some results of the screen, not a fair sample: it is rich in T/C values a quarter to a half above the control, in often repeated tests (any T/C) and in doses without a T/C. Further doses and runs are listed elsewhere. T/C gives the treated animals as a percentage of the vehicle group. Some entries give survivors of the animals treated and no T/C: the source files T/C as zero there, which appears to mark a toxic dose or a test without result, not a measured value. Some doses without a T/C left all or most animals alive at the check, yet need not have been tolerated: survival well below the control is almost never listed, so the zero probably covers shortened survival too. Survivors were counted at the toxicity check, usually on the fifth day, unless a day is given; later deaths do not show. Schedules are NCI's codes, read here as Q, the interval in days (D) or hours (H), X, the number of doses. For survival time, this PubChem deposit counts one and a half times the control or more as active, and values a quarter to a half above the control carry no call in these data; other NCI protocols may use other cut-offs. Some entries hold several experiments; the values are given in rising order. Signs of the kind (2×) count equal records among those shown. Some T/C values carry the count of animals alive at the toxicity check (mostly the fifth day); without a count, all were alive then.

System: P388 leukemia ip, CD2F1 mice, survival T/C
Test: NCI In Vivo Anticancer Drug Screen. Data for tumor model P388 Leukemia (intraperitoneal) in CD2F1 (CDF1) mice
Conditions: T/C endpoint: median survival time, higher T/C = longer survival
[1] = dose: 120.0 mg/kg/injection, schedule: Q01DX005 (ip), vehicle: saline with Tween-80
[2] = dose: 240.0 mg/kg/injection, schedule: Q01DX005 (ip), vehicle: saline with Tween-80
[3] = dose: 200.0 mg/kg/injection, schedule: Q01DX009 (ip), vehicle: saline with Tween-80
[4] = dose: 400.0 mg/kg/injection, schedule: Q01DX009 (ip), vehicle: saline with Tween-80
[5] = dose: 50.0 mg/kg/injection, schedule: Q01DX009 (ip), vehicle: suspension in saline
[6] = dose: 200.0 mg/kg/injection, schedule: Q01DX009 (ip), vehicle: saline
[7] = dose: 50.0 mg/kg/injection, schedule: Q01DX009 (ip), vehicle: saline
[8] = dose: 400.0 mg/kg/injection, schedule: Q04DX003 (ip), vehicle: saline
[9] = dose: 100.0 mg/kg/injection, schedule: Q04DX002 (ip), vehicle: saline with Tween-80
[10] = dose: 400.0 mg/kg/injection, schedule: Q04DX002 (ip), vehicle: saline with Tween-80

Question: Which results are given for COc1ccc(C2c3cc4c(cc3OC(N3CCCC3)C2C)OCO4)cc1 (stereo not drawn)?
Answer: survivor count (dose: 60.0 mg/kg/injection, schedule: Q01DX005 (ip), vehicle: saline with Tween-80): 6 of 6; survivor count [1]: 6 of 6; survivor count [2]: 5 of 6

Question: How did the T/C [3] turn out when CC1CN1P(=S)(Oc1ccccc1)N1CC1C (stereo not drawn) was run?
Answer: The T/C was 125 % of control.

Question: And the survivor count (dose: 264.0 mg/kg/injection, schedule: Q01DX009 (ip), vehicle: saline with Tween-80)?
Answer: Its survivor count is 6 of 6.

Question: What about the T/C [4] of the same molecule?
Answer: The T/C was 135 % of control.

Question: What about the survivor count [4] of the same molecule?
Answer: Its survivor count is 1 of 6.

Question: What about the survivor count (dose: 600.0 mg/kg/injection, schedule: Q01DX009 (ip), vehicle: saline with Tween-80) of the same molecule?
Answer: Its survivor count is 3 of 6.

Question: For CC(=O)c1c(C)[nH]c(-c2ccccc2)c1NS(=O)(=O)c1ccc(N)cc1, which survivor count [2] is on record?
Answer: The survivor count was 6 of 6.

Question: For CC1=C(CCC(C)CO)OC2CC3C4CCC5CC(O)CCC5(C)C4CCC3(C)C12 (stereo not drawn), which survivor count [5] is on record?
Answer: The survivor count was 5 of 6.

Question: With CCOC(C)(c1ccc(Cl)cc1)C1CCNCC1 (stereo not drawn) as the molecule, how does the survivor count [3] read?
Answer: The survivor count was 0 of 6.

Question: For Cc1cc(O)c(C=O)c2c1C(=O)Oc1c(COC(=O)/C=C/C(=O)O)c(O)c(C(=O)O)c(C)c1O2, which survivor count [6] is on record?
Answer: The survivor count was 2 of 3.

Question: How did the survivor count (dose: 12.5 mg/kg/injection, schedule: Q01DX009 (ip), vehicle: other) turn out when CN(N=O)P(=O)(Nc1ccccc1)Nc1ccccc1 was run?
Answer: Its survivor count is 6 of 6.

Question: O=C1CSC(=S)N1c1ccc(Cl)c([N+](=O)[O-])c1 was tested. Which survivor count [5] did it give?
Answer: Its survivor count is 5 of 6.

Question: What about the T/C (dose: 100.0 mg/kg/injection, schedule: Q01DX009 (ip), vehicle: saline) of the same molecule?
Answer: Its T/C is 128 % of control.

Question: And the T/C [6]?
Answer: The T/C was 128 % of control.

Question: With COc1cc2nc3occc3c(OC)c2cc1OCC(O)C(C)(C)O (stereo not drawn) as the molecule, how does the survivor count (dose: 50.0 mg/kg/injection, schedule: Q01DX005 (ip), vehicle: distilled water + Tween-80) read?
Answer: The survivor count was 6 of 6.

Question: What about the survivor count (dose: 100.0 mg/kg/injection, schedule: Q01DX005 (ip), vehicle: distilled water + Tween-80) of the same molecule?
Answer: The survivor count was 6 of 6.

Question: What about the survivor count (dose: 200.0 mg/kg/injection, schedule: Q01DX005 (ip), vehicle: distilled water + Tween-80) of the same molecule?
Answer: The survivor count was 0 of 6.

Question: For Nc1ccccc1C(=O)Nc1ccc(Cl)cc1C(=O)O, which survivor count [6] is on record?
Answer: The survivor count was 2 of 6.

Question: CN1C(=O)N(C)C2=NC(=O)N(C)C2(C(Cl)(Cl)Cl)C1=O (stereo not drawn) was tested. Which survivor count [1] did it give?
Answer: Its survivor count is 0 of 6.

Question: What about the survivor count [2] of the same molecule?
Answer: The survivor count was 0 of 6.

Question: How did the survivor count (dose: 15.0 mg/kg/injection, schedule: Q01DX005 (ip), vehicle: saline) turn out when C=C(CN1CCN(C)CC1)C(=O)c1ccccc1 was run?
Answer: The survivor count was 2 of 6.

Question: What about the survivor count (dose: 30.0 mg/kg/injection, schedule: Q01DX005 (ip), vehicle: saline) of the same molecule?
Answer: Its survivor count is 0 of 6.

Question: How did the survivor count [3] turn out when Cc1noc(/N=N/N(C)c2ccccc2)c1C was run?
Answer: Its survivor count is 3 of 6.

Question: With N#CN(Cc1ccccc1)C(c1ccccc1)(c1ccccc1)c1ccccc1.[Br][Sn]([c]1ccccc1)([c]1ccccc1)[c]1ccccc1 as the molecule, how does the survivor count (dose: 12.5 mg/kg/injection, schedule: Q01DX005 (ip), vehicle: saline with Tween-80) read?
Answer: Its survivor count is 5 of 6.

Question: What about the survivor count (dose: 25.0 mg/kg/injection, schedule: Q01DX005 (ip), vehicle: saline with Tween-80) of the same molecule?
Answer: The survivor count was 3 of 6.

Question: And the survivor count (dose: 50.0 mg/kg/injection, schedule: Q01DX005 (ip), vehicle: saline with Tween-80)?
Answer: Its survivor count is 3 of 6.

Question: What about the survivor count (dose: 100.0 mg/kg/injection, schedule: Q01DX005 (ip), vehicle: saline with Tween-80) of the same molecule?
Answer: Its survivor count is 0 of 6.

Question: What about the survivor count (dose: 200.0 mg/kg/injection, schedule: Q01DX005 (ip), vehicle: saline with Tween-80) of the same molecule?
Answer: The survivor count was 0 of 6.

Question: For Nc1nc(Nc2ccc(C3=NCCN3)cc2)nc(Nc2ccc(C3=NCCN3)cc2)n1, which T/C (dose: 12.5 mg/kg/injection, schedule: Q01DX009 (ip), vehicle: saline) is on record?
Answer: The T/C was 125 % of control.

Question: And the T/C (dose: 12.5 mg/kg/injection, schedule: Q01DX009 (ip), vehicle: suspension in saline)?
Answer: The T/C was 125 % of control.

Question: What about the T/C (dose: 25.0 mg/kg/injection, schedule: Q01DX009 (ip), vehicle: saline) of the same molecule?
Answer: The T/C was 126 % of control.

Question: And the T/C (dose: 25.0 mg/kg/injection, schedule: Q01DX009 (ip), vehicle: suspension in saline)?
Answer: Its T/C is 133 % of control [5 of 6 alive].

Question: What about the survivor count [7] of the same molecule?
Answer: The survivor count was 4 of 6.

Question: What about the T/C [5] of the same molecule?
Answer: The T/C was 144 % of control.

Question: For N=C(N)c1ccc(/C=C/c2cc3ccc(C(=N)N)cc3[nH]2)cc1, which T/C (dose: 12.5 mg/kg/injection, schedule: Q04DX003 (ip), vehicle: saline) is on record?
Answer: Its T/C is 125 % of control.

Question: What about the T/C (dose: 25.0 mg/kg/injection, schedule: Q04DX003 (ip), vehicle: saline) of the same molecule?
Answer: Its T/C is 136 % of control.

Question: And the T/C (dose: 100.0 mg/kg/injection, schedule: Q04DX003 (ip), vehicle: saline)?
Answer: Its T/C is 144 % of control [5 of 6 alive].

Question: And the survivor count (dose: 200.0 mg/kg/injection, schedule: Q04DX003 (ip), vehicle: saline)?
Answer: The survivor count was 0 of 6.

Question: What about the survivor count [8] of the same molecule?
Answer: Its survivor count is 0 of 6.

Question: How did the T/C [7] turn out when O=C1CN(CN2CCOCC2)C(=O)CN1CN1CCOCC1 was run?
Answer: The T/C was 135 % of control.

Question: How did the survivor count [8] turn out when Cc1nn(C(=O)c2ccncc2)c(C)c1N=Nc1cccc([N+](=O)[O-])c1 was run?
Answer: Its survivor count is 0 of 6.

Question: What does the source list for CN(C)CCN(C)c1cccc2c1C(=O)c1cscc1C2=O?
Answer: T/C (dose: 12.5 mg/kg/injection, schedule: Q01DX005 (ip), vehicle: saline): 144 % of control; survivor count (dose: 100.0 mg/kg/injection, schedule: Q01DX005 (ip), vehicle: saline): 0 of 6; survivor count (dose: 200.0 mg/kg/injection, schedule: Q01DX005 (ip), vehicle: saline): 0 of 6

Question: N=C(N)SCCN1C(=O)NC(c2ccccc2)(c2ccccc2)C1=O was tested. Which survivor count (dose: 400.0 mg/kg/injection, schedule: Q04DX003 (ip), vehicle: Klucel (hydroxypropylcellulose) (HPC)) did it give?
Answer: Its survivor count is 2 of 6.

Question: COc1cc2c3c(c1O)-c1c(cccc1OC)CC3N(C)CC2 (stereo not drawn) was tested. Which survivor count (dose: 50.0 mg/kg/injection, schedule: Q04DX003 (ip), vehicle: saline with Tween-80) did it give?
Answer: The survivor count was 1 of 6.

Question: And the survivor count (dose: 100.0 mg/kg/injection, schedule: Q04DX003 (ip), vehicle: saline with Tween-80)?
Answer: Its survivor count is 0 of 6.

Question: What about the survivor count (dose: 200.0 mg/kg/injection, schedule: Q04DX003 (ip), vehicle: saline with Tween-80) of the same molecule?
Answer: The survivor count was 0 of 6.

Question: And the survivor count (dose: 400.0 mg/kg/injection, schedule: Q04DX003 (ip), vehicle: saline with Tween-80)?
Answer: The survivor count was 0 of 6.

Question: Which survivor count [6] does the source give for O=C(O)C(O)C(O)C(=O)O.[Bi].[Na+] (stereo not drawn) here?
Answer: The survivor count was 0 of 6.

Question: For Cc1nn(C(N)=S)c(C)c1N=Nc1ccc(Cl)cc1Cl, which T/C [9] is on record?
Answer: Its T/C is 91, 108, 140 % of control.

Question: And the survivor count [9]?
Answer: Its survivor count is 6 of 6.

Question: And the T/C (dose: 200.0 mg/kg/injection, schedule: Q04DX002 (ip), vehicle: saline with Tween-80)?
Answer: Its T/C is 86, 96, 107, 140 % of control.

Question: What about the T/C [10] of the same molecule?
Answer: The T/C was 96, 103, 149 % of control.

Question: And the survivor count [10]?
Answer: The survivor count was 1 of 6.

Question: What about the survivor count (dose: 600.0 mg/kg/injection, schedule: Q04DX002 (ip), vehicle: saline with Tween-80) of the same molecule?
Answer: The survivor count was 0 of 6.

Question: What does the source list for C=C1C(=O)OC2CC1C(O)C/C(C)=C/CC/C(C)=C/C(O)CC2C (stereo not drawn)?
Answer: survivor count (dose: 50.0 mg/kg/injection, schedule: Q01DX009 (ip), vehicle: Klucel (hydroxypropylcellulose) (HPC)): 6 of 6; survivor count (dose: 100.0 mg/kg/injection, schedule: Q01DX009 (ip), vehicle: Klucel (hydroxypropylcellulose) (HPC)): 0 of 6; survivor count (dose: 200.0 mg/kg/injection, schedule: Q01DX009 (ip), vehicle: Klucel (hydroxypropylcellulose) (HPC)): 0 of 6

Question: Which survivor count (dose: 50.0 mg/kg/injection, schedule: Q01DX009 (ip), vehicle: saline with Tween-80) does the source give for O=S(=O)(OCCCl)c1c(F)c(F)c(F)c(F)c1F here?
Answer: The survivor count was 5 of 6.

Question: And the survivor count (dose: 100.0 mg/kg/injection, schedule: Q01DX009 (ip), vehicle: saline with Tween-80)?
Answer: The survivor count was 4 of 6.

Question: What about the survivor count [3] of the same molecule?
Answer: The survivor count was 0 of 6.

Question: How did the T/C (dose: 5.0 mg/kg/injection, schedule: Q01DX009 (ip), vehicle: saline) turn out when ClCCN(CCCl)CC(Cl)COc1cccc2ccccc12 (stereo not drawn) was run?
Answer: Its T/C is 94, 96, 120, 127 % of control.

Question: And the T/C (dose: 10.0 mg/kg/injection, schedule: Q01DX009 (ip), vehicle: saline)?
Answer: Its T/C is 119, 127, 132 % of control (2×).

Question: And the T/C (dose: 20.0 mg/kg/injection, schedule: Q01DX009 (ip), vehicle: saline)?
Answer: The T/C was 134 and 141 % of control.

Question: What about the T/C (dose: 40.0 mg/kg/injection, schedule: Q01DX009 (ip), vehicle: saline) of the same molecule?
Answer: Its T/C is 133 and 139 % of control.
